PubChem BioAssay AID2810 (NMMLSC, 2010)
This is one part of the list. Further columns of the screen follow, without active or inactive calls.

Assay: modulators of CD8 T cell-vesicle binding, confirmation, cherry-picked primary hits, two concentrations (AID 2810);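 note: lower values mean blocking of vesicle binding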;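 for percent response (vesicle binding): ratio of mean FL2 vesicle stain of CD8+ cells to that row's control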
Settings: 2C CD8+ T cell-vesicle binding, flow cytometry; for double positive events: CD8+/vesicle+ events
[1] = at 15.4 µM, stronger effect = lower value

Q: Which results are given for `O=C(CN(C(=O)CSc1nnc(COc2ccccc2)o1)c1ccc(F)cc1)NC1CCCCC1`?
A: double positive events (at 7.7 µM): 7.1%; double positive events [1]: 24.3%; percent response (vesicle binding) (at 7.7 µM): 295%

Q: Which double positive events (at 7.7 µM) does the source give for `CCOC(=O)c1sc(NC(=O)C2CC(=O)N(c3ccccc3OC)C2)nc1C` (stereo not given) here?
A: 18.2%

Q: And the double positive events [1]?
A: 23.6%

Q: And the percent response (vesicle binding) (at 7.7 µM)?
A: 195%

Q: What does the source list for `CC(C)c1ccc(NC(=O)C2CCCCC2C(=O)O)cc1` (stereo not given)?
A: double positive events (at 7.7 µM): 10.8%; double positive events [1]: 16.7%; percent response (vesicle binding) (at 7.7 µM): 459%

Q: For `C[C@H](CO)N1C[C@H](C)[C@@H](CN(C)Cc2ccc(Cl)c(Cl)c2)Oc2ccc(NC(=O)Cn3cnnn3)cc2C1=O`, which double positive events (at 7.7 µM) is on record?
A: 25.4%

Q: What about the double positive events [1] of the same molecule?
A: 7.9%

Q: What about the percent response (vesicle binding) (at 7.7 µM) of the same molecule?
A: 563%

Q: With `S=C(Nc1ccccn1)c1ccccn1` as the molecule, how does the double positive events (at 7.7 µM) read?
A: 12.9%

Q: What about the double positive events [1] of the same molecule?
A: 16.1%

Q: And the percent response (vesicle binding) (at 7.7 µM)?
A: 218%

Q: Which double positive events (at 7.7 µM) does the source give for `O=c1cc(CN2CCCc3ccccc32)nc2sccn12` here?
A: 7.8%

Q: What about the double positive events [1] of the same molecule?
A: 34.5%

Q: And the percent response (vesicle binding) (at 7.7 µM)?
A: 91.2%

Q: Which double positive events (at 7.7 µM) does the source give for `COc1cccc(NC(=O)Cn2cc3c(n2)CCCCC3)c1` here?
A: 27%

Q: What about the double positive events [1] of the same molecule?
A: 10.7%

Q: What about the percent response (vesicle binding) (at 7.7 µM) of the same molecule?
A: 569%

Q: What does the source list for `O=C(c1ccc(Br)s1)N1CCN(c2ccccn2)CC1`?
A: double positive events (at 7.7 µM): 28.6%; double positive events [1]: 10.8%; percent response (vesicle binding) (at 7.7 µM): 326%

Q: With `C[C@H](CO)N1C[C@H](C)[C@@H](CN(C)C)Oc2c(NS(=O)(=O)c3ccccc3)cccc2C1=O` as the molecule, how does the double positive events (at 7.7 µM) read?
A: 22.9%

Q: And the double positive events [1]?
A: 9.5%

Q: What about the percent response (vesicle binding) (at 7.7 µM) of the same molecule?
A: 291%

Q: Which double positive events (at 7.7 µM) does the source give for `CCC(C)n1c(=S)[nH]c2c(sc3ccc([N+](=O)[O-])cc32)c1=O` (stereo not given) here?
A: 9.8%

Q: And the double positive events [1]?
A: 36.2%

Q: What about the percent response (vesicle binding) (at 7.7 µM) of the same molecule?
A: 286%

Q: For `CCOC(=O)c1c(N2C(=O)CC(Sc3ccccc3C(=O)O)C2=O)sc2c1CCCC2` (stereo not given), which double positive events (at 7.7 µM) is on record?
A: 14.4%

Q: And the double positive events [1]?
A: 1.4%

Q: What about the percent response (vesicle binding) (at 7.7 µM) of the same molecule?
A: 334%

Q: Which double positive events (at 7.7 µM) does the source give for `O=C(CC1C(=O)NCCN1CC1CCCCC1)NCc1cc(F)ccc1F` (stereo not given) here?
A: 12.7%

Q: What about the double positive events [1] of the same molecule?
A: 32.9%

Q: And the percent response (vesicle binding) (at 7.7 µM)?
A: 186%

Q: With `CCCNC(=O)NC(=O)CN1C(=O)NC(C)(c2ccc(C)cc2)C1=O` (stereo not given) as the molecule, how does the double positive events (at 7.7 µM) read?
A: 6.9%

Q: What about the double positive events [1] of the same molecule?
A: 19.2%

Q: And the percent response (vesicle binding) (at 7.7 µM)?
A: 277%

Q: Which results are given for `CCC(=O)Oc1ccc2ccccc2c1CNC(=O)c1ccccc1`?
A: double positive events (at 7.7 µM): 9.9%; double positive events [1]: 18.3%; percent response (vesicle binding) (at 7.7 µM): 133%

Q: For `Fc1cc(F)c(NC(=S)N2CCOCC2)c(F)c1`, which double positive events (at 7.7 µM) is on record?
A: 32.6%

Q: What about the double positive events [1] of the same molecule?
A: 10.4%

Q: And the percent response (vesicle binding) (at 7.7 µM)?
A: 278%

Q: With `O=C(CCc1ccccc1)N/N=C/c1cc(Br)ccc1O` as the molecule, how does the double positive events (at 7.7 µM) read?
A: 17.2%

Q: And the double positive events [1]?
A: 25.8%

Q: And the percent response (vesicle binding) (at 7.7 µM)?
A: 222%

Q: For `C/C(=N\NC(=O)c1ccco1)c1cc2ccccc2o1`, which double positive events (at 7.7 µM) is on record?
A: 10.1%

Q: What about the double positive events [1] of the same molecule?
A: 19.7%

Q: What about the percent response (vesicle binding) (at 7.7 µM) of the same molecule?
A: 451%

Q: Which double positive events (at 7.7 µM) does the source give for `Cn1c(=O)[nH]c(=O)c2c1nc(NCCCn1ccnc1)n2Cc1cccc(Br)c1` here?
A: 9.3%

Q: And the double positive events [1]?
A: 17.2%

Q: What about the percent response (vesicle binding) (at 7.7 µM) of the same molecule?
A: 348%

Q: For `Cc1ccc(C)c(-n2sc3ccc(F)cc3c2=O)c1`, which double positive events (at 7.7 µM) is on record?
A: 3.2%

Q: And the double positive events [1]?
A: 12.6%

Q: What about the percent response (vesicle binding) (at 7.7 µM) of the same molecule?
A: 168%

Q: For `c1ccc(C(c2nnnn2C2CCCCC2)N2CCc3ccccc3C2)nc1` (stereo not given), which double positive events (at 7.7 µM) is on record?
A: 20.3%

Q: What about the double positive events [1] of the same molecule?
A: 21.1%

Q: And the percent response (vesicle binding) (at 7.7 µM)?
A: 204%

Q: For `CCc1ccccc1NNC(=O)c1snnc1C`, which double positive events (at 7.7 µM) is on record?
A: 27.3%

Q: And the double positive events [1]?
A: 21%

Q: For `Cc1ccc(-c2noc(Cn3cc(S(=O)(=O)N4CCCC4)ccc3=O)n2)cc1`, which double positive events (at 7.7 µM) is on record?
A: 38.7%

Q: What about the double positive events [1] of the same molecule?
A: 9.6%

Q: And the percent response (vesicle binding) (at 7.7 µM)?
A: 326%

Q: Which double positive events (at 7.7 µM) does the source give for `O=C(NC1CCCC1)C(c1ccc(Cl)cc1)N(Cc1ccc(F)cc1)C(=O)CCl` (stereo not given) here?
A: 11.5%

Q: What about the double positive events [1] of the same molecule?
A: 7.7%

Q: And the percent response (vesicle binding) (at 7.7 µM)?
A: 515%

Q: With `CCc1ccc(C(=O)N2CCCN(C)CC2)s1` as the molecule, how does the double positive events (at 7.7 µM) read?
A: 6.7%

Q: What about the double positive events [1] of the same molecule?
A: 19.6%

Q: What about the percent response (vesicle binding) (at 7.7 µM) of the same molecule?
A: 314%

Q: Which results are given for `COCCN(C(=O)CNC(=O)c1cccs1)C(C(=O)NC1CCCC1)c1cccs1` (stereo not given)?
A: double positive events (at 7.7 µM): 12.4%; double positive events [1]: 23.6%; percent response (vesicle binding) (at 7.7 µM): 207%

Q: Which double positive events (at 7.7 µM) does the source give for `Cc1ccc(OCc2cc(C(=O)N(CCO)Cc3cccs3)no2)cc1C` here?
A: 14.5%

Q: What about the double positive events [1] of the same molecule?
A: 29.1%

Q: What about the percent response (vesicle binding) (at 7.7 µM) of the same molecule?
A: 95%

Q: Which double positive events (at 7.7 µM) does the source give for `CN(CC(=O)Nc1ccccc1Cl)C(=O)COC(=O)c1cc(S(=O)(=O)N(C)C)ccc1N1CCCC1` here?
A: 10.6%

Q: What about the double positive events [1] of the same molecule?
A: 18.8%

Q: What about the percent response (vesicle binding) (at 7.7 µM) of the same molecule?
A: 138%

Q: What does the source list for `CCc1ccc(C(=O)NC(C(=O)NCC2CCCO2)C(C)C)cc1` (stereo not given)?
A: double positive events (at 7.7 µM): 31.9%; double positive events [1]: 11.6%; percent response (vesicle binding) (at 7.7 µM): 296%

Q: For `CN(C)S(=O)(=O)c1cccc(C(=O)Nc2cc3c(cc2C(=O)O)OCCCO3)c1`, which double positive events (at 7.7 µM) is on record?
A: 9.8%

Q: And the double positive events [1]?
A: 24.2%

Q: And the percent response (vesicle binding) (at 7.7 µM)?
A: 116%

Q: Which double positive events (at 7.7 µM) does the source give for `CCN(CC)C(=O)N1CCN(S(=O)(=O)c2ccc(C)cc2)CC1` here?
A: 17.1%

Q: What about the double positive events [1] of the same molecule?
A: 19.1%

Q: What about the percent response (vesicle binding) (at 7.7 µM) of the same molecule?
A: 184%

Q: Which double positive events (at 7.7 µM) does the source give for `O=C1/C(=C\c2ccc3ccccc3c2)CCCc2ccccc21` here?
A: 8.9%

Q: And the double positive events [1]?
A: 26.1%

Q: And the percent response (vesicle binding) (at 7.7 µM)?
A: 172%

Q: Which double positive events (at 7.7 µM) does the source give for `CCCn1c(SCC(=O)Nc2ccc(Cl)cc2)n[nH]c1=O` here?
A: 43.3%

Q: What about the double positive events [1] of the same molecule?
A: 13.3%

Q: And the percent response (vesicle binding) (at 7.7 µM)?
A: 336%

Q: Which results are given for `Oc1[nH]c2ccccc2c1/C=N/N1CCCCC1`?
A: double positive events (at 7.7 µM): 29.8%; double positive events [1]: 20.1%; percent response (vesicle binding) (at 7.7 µM): 199%

Q: For `O=C(C[n+]1ccc2ccccc2c1)Nc1cc(C(F)(F)F)ccc1Cl`, which double positive events (at 7.7 µM) is on record?
A: 30.8%

Q: What about the double positive events [1] of the same molecule?
A: 19.3%

Q: And the percent response (vesicle binding) (at 7.7 µM)?
A: 206%

Q: What does the source list for `CCCCn1c(N)c(N(CCOC)C(=O)C2CC(=O)N(c3ccc(CC)cc3)C2)c(=O)[nH]c1=O` (stereo not given)?
A: double positive events (at 7.7 µM): 24.5%; double positive events [1]: 34.9%; percent response (vesicle binding) (at 7.7 µM): 228%

Q: For `CC(C)NC(=O)C1CCN(C(=O)N(C)C)CC1`, which double positive events (at 7.7 µM) is on record?
A: 8.9%

Q: What about the double positive events [1] of the same molecule?
A: 31.4%

Q: And the percent response (vesicle binding) (at 7.7 µM)?
A: 143%

Q: Which results are given for `Cc1ccc(C)c(-n2c3nc(=O)[nH]c(=O)c-3cc3cc([N+](=O)[O-])ccc32)c1`?
A: double positive events (at 7.7 µM): 6.2%; double positive events [1]: 14.4%; percent response (vesicle binding) (at 7.7 µM): 325%

Q: Which double positive events (at 7.7 µM) does the source give for `Cc1cc(C)nc(NC(=O)c2ccc([N+](=O)[O-])o2)n1` here?
A: 23.8%

Q: And the double positive events [1]?
A: 22.3%

Q: What about the percent response (vesicle binding) (at 7.7 µM) of the same molecule?
A: 371%

Q: Which results are given for `Cc1cc(OCC(=O)N(C)c2c(N)n(Cc3ccccc3)c(=O)[nH]c2=O)c(C(C)C)cc1Cl`?
A: double positive events (at 7.7 µM): 13.3%; double positive events [1]: 24.8%; percent response (vesicle binding) (at 7.7 µM): 181%

Q: Which results are given for `Cc1ccc(-c2n[nH]c(=S)n2-c2ccccc2)cc1`?
A: double positive events (at 7.7 µM): 8.7%; double positive events [1]: 31.7%; percent response (vesicle binding) (at 7.7 µM): 438%

Q: What does the source list for `CN1CCN(S(=O)(=O)c2ccc(N3CCN(c4ccccc4Cl)CC3)nc2)CC1`?
A: double positive events (at 7.7 µM): 13.7%; double positive events [1]: 22.2%; percent response (vesicle binding) (at 7.7 µM): 149%

Q: For `O=C(CCC(=O)N1CCOCC1)NCc1cccc(C(F)(F)F)c1`, which double positive events (at 7.7 µM) is on record?
A: 11.9%

Q: And the double positive events [1]?
A: 4.9%

Q: And the percent response (vesicle binding) (at 7.7 µM)?
A: 427%
